Reference: PubChem BioAssay AID1259308 (NCATS, 2017)
Screen: 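Knock-downs that increase output of a recombinant reporter protein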 (primary screen). System: human HEK293 embryonic kidney cells stably expressing firefly luciferase (HEK-CMV-Luc2-Hygro). Reagents: single siRNA against human genes, 0.8 pmol siRNA per well. Time to read-out: 72 h. Read-out: 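Luciferase light (ONE-Glo) measured on one replicate plate set and viability (CellTiter-Glo) on the other, scaled to a negative control siRNA, with robust z-scores and luciferase per cell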. Scale: total luciferase, z-score and total luciferase, % of control: higher = more reporter protein produced; luciferase per cell, z-score: higher = more reporter output per viable cell; viable cells, % of control: higher = more viable cells. Rule for the call: 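An siRNA counts as active if its total luciferase robust z-score exceeds 3; genes with two or more such siRNAs out of three were retested with fresh siRNAs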. Calls: active = raised luciferase; inactive = no rise.
Shown is one part, drawn at random, of about 59,000 reagents tested. About 1,510 of all reagents (2.6%) count as active. 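Calls use total luciferase alone and ignore viability, so some active siRNAs may act by altering cell number.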 The numbers tell different reagents against one gene apart. No sequences are given here.

| Target gene | reagent | total luciferase, z-score | total luciferase, % of control | luciferase per cell, z-score | viable cells, % of control | Call |
| --- | --- | --- | --- | --- | --- | --- |
| DNAJB3P (GeneID 414061) | 1 | -0.22 | 77.5 | -0.162 | 90.4 | inactive |
| DNAJB3P (GeneID 414061) | 2 | 0.105 | 84 | -0.0705 | 95.6 | inactive |
| DNAJB3P (GeneID 414061) | 3 | -1.71 | 47.9 | -2.37 | 99.7 | inactive |
| MSANTD2 (GeneID 79684) | 1 | -1.47 | 52.6 | -0.824 | 73 | inactive |
| MSANTD2 (GeneID 79684) | 2 | -1.68 | 48.5 | -1.64 | 83.6 | inactive |
| MSANTD2 (GeneID 79684) | 3 | 1.74 | 117 | 2.28 | 71.5 | inactive |
| NPLOC4 (GeneID 55666) | 1 | 0.716 | 96.1 | 0.691 | 89.6 | inactive |
| NPLOC4 (GeneID 55666) | 2 | 2.99 | 141 | 2.3 | 86.2 | inactive |
| NPLOC4 (GeneID 55666) | 3 | 1.35 | 109 | 1.18 | 89 | inactive |
| LOC440386 (retired record) (GeneID 440386) | 1 | 2.35 | 129 | 1.72 | 91.3 | inactive |
| LOC440386 (retired record) (GeneID 440386) | 2 | -1.75 | 47.1 | -0.307 | 57 | inactive |
| LOC440386 (retired record) (GeneID 440386) | 3 | 1.15 | 105 | 1.08 | 88 | inactive |
| ZNF470 (GeneID 388566) | 1 | -0.726 | 67.5 | 0.817 | 60.8 | inactive |
| ZNF470 (GeneID 388566) | 2 | 0.0828 | 83.5 | 1.61 | 61 | inactive |
| ZNF470 (GeneID 388566) | 3 | -0.318 | 75.6 | -0.436 | 94.7 | inactive |
| DOCK5 (GeneID 80005) | 1 | 1.16 | 105 | 0.385 | 106 | inactive |
| DOCK5 (GeneID 80005) | 2 | 2.77 | 137 | 2.01 | 90.1 | inactive |
| DOCK5 (GeneID 80005) | 3 | 0.127 | 84.4 | -0.291 | 102 | inactive |
| TGIF2 (GeneID 60436) | 1 | 0.818 | 98.2 | 1.2 | 79.9 | inactive |
| TGIF2 (GeneID 60436) | 2 | -1.21 | 57.9 | 0.0889 | 63.1 | inactive |
| TGIF2 (GeneID 60436) | 3 | -0.377 | 74.4 | 0.043 | 82.2 | inactive |
| SNAPC5 (GeneID 10302) | 1 | 1.34 | 109 | 0.649 | 102 | inactive |
| SNAPC5 (GeneID 10302) | 2 | 2.98 | 141 | 2.71 | 77.2 | inactive |
| SNAPC5 (GeneID 10302) | 3 | 2.32 | 128 | 0.992 | 110 | inactive |
| SARDH (GeneID 1757) | 1 | -0.51 | 71.7 | -0.524 | 92 | inactive |
| SARDH (GeneID 1757) | 2 | -0.443 | 73.1 | -1.22 | 113 | inactive |
| SARDH (GeneID 1757) | 3 | 0.172 | 85.3 | -0.0945 | 97.7 | inactive |
| CD1B (GeneID 910) | 1 | 0.000482 | 81.9 | -0.137 | 94.9 | inactive |
| CD1B (GeneID 910) | 2 | -1.37 | 54.5 | -1.63 | 93.7 | inactive |
| CD1B (GeneID 910) | 3 | 0.248 | 86.8 | -0.368 | 107 | inactive |

Limited to “total luciferase, z-score” (8 entries from above):
TGIF2 (GeneID 60436) #2: -1.21
TGIF2 (GeneID 60436) #3: -0.377
SNAPC5 (GeneID 10302) #1: 1.34
SNAPC5 (GeneID 10302) #2: 2.98
SNAPC5 (GeneID 10302) #3: 2.32
SARDH (GeneID 1757) #1: -0.51
SARDH (GeneID 1757) #2: -0.443
SARDH (GeneID 1757) #3: 0.172

Further reagents follow:
| Target gene | reagent | total luciferase, z-score | total luciferase, % of control | luciferase per cell, z-score | viable cells, % of control | Call |
| --- | --- | --- | --- | --- | --- | --- |
| LITAF (GeneID 9516) | 1 | 1.35 | 109 | 1.21 | 88.4 | inactive |
| LITAF (GeneID 9516) | 2 | -0.0423 | 81 | 0.403 | 81.4 | inactive |
| LITAF (GeneID 9516) | 3 | -1.13 | 59.3 | -1.37 | 95.2 | inactive |
| TRIM48 (GeneID 79097) | 1 | -0.723 | 67.5 | -0.271 | 81 | inactive |
| TRIM48 (GeneID 79097) | 2 | -0.266 | 76.6 | -0.289 | 92.4 | inactive |
| TRIM48 (GeneID 79097) | 3 | 1.72 | 116 | 1.26 | 93 | inactive |
| SRGAP2 (GeneID 23380) | 1 | 0.0645 | 83.2 | 0.0642 | 91.4 | inactive |
| SRGAP2 (GeneID 23380) | 2 | -1.02 | 61.6 | -1.2 | 94.5 | inactive |
| SRGAP2 (GeneID 23380) | 3 | 0.159 | 85 | -0.421 | 106 | inactive |
| SRGAP2 (GeneID 23380) | 4 | -0.14 | 79.1 | 0.257 | 82.6 | inactive |
| SRGAP2 (GeneID 23380) | 5 | 2.84 | 138 | 2.3 | 84.5 | inactive |
| SRGAP2 (GeneID 23380) | 6 | 0.8 | 97.8 | 1.2 | 79.6 | inactive |
| N4BP1 (GeneID 9683) | 1 | 0.264 | 87.1 | -0.275 | 105 | inactive |
| N4BP1 (GeneID 9683) | 2 | 0.358 | 89 | 0.297 | 92 | inactive |
| N4BP1 (GeneID 9683) | 3 | -0.66 | 68.8 | -1.07 | 102 | inactive |
| DUS1L (GeneID 64118) | 1 | -0.0237 | 81.4 | -0.6 | 107 | inactive |
| DUS1L (GeneID 64118) | 2 | -0.583 | 70.3 | -1.15 | 106 | inactive |
| DUS1L (GeneID 64118) | 3 | 1.6 | 114 | 1.71 | 80.9 | inactive |
| C2orf66 (GeneID 401027) | 1 | 1.15 | 105 | 1.3 | 83 | inactive |
| C2orf66 (GeneID 401027) | 2 | -0.544 | 71.1 | 0.281 | 73.8 | inactive |
| C2orf66 (GeneID 401027) | 3 | -0.844 | 65.1 | -0.61 | 85.4 | inactive |
| PPP1R16A (GeneID 84988) | 1 | 0.436 | 90.6 | 0.238 | 95 | inactive |
| PPP1R16A (GeneID 84988) | 2 | -0.147 | 79 | -0.116 | 91 | inactive |
| PPP1R16A (GeneID 84988) | 3 | -0.937 | 63.2 | -0.912 | 89.9 | inactive |
| SLC38A10 (GeneID 124565) | 1 | -0.564 | 70.7 | 1.18 | 57.9 | inactive |
| SLC38A10 (GeneID 124565) | 2 | 0.0363 | 82.6 | 0.352 | 84.1 | inactive |
| SLC38A10 (GeneID 124565) | 3 | 4.58 | 173 | 3.34 | 80.2 | active |
